In patent US20120093752A1, “Use of Monoamine Oxidase Inhibitors to Improve Epithelial Biology” (priority 2010, published 2012):
At least one structure is not confirmed: it was looked up by name or label, or the drawing left a doubt.

Tested on: follicles in telogen
Assay: Hair growth (melanogenesis) with MAO inhibitor in combination with vasodilator minoxidil
Format: in vivo
Details: after 18 days of treatment, C57Bl/6 mice

Question: Which “mice that reached complete melanogenesis” value does the source give for Nc1cc(N2CCCCC2)nc(N)[n+]1[O-] [minoxidil] here?
Answer: Its value is “about half of the mice”.
